Results as given in PMC12040169 (PLOS Biology, 2025).
This is one part of the list.

Tested on: T1, CTL2-GFP (C. trachomatis L2/434/Bu, GFP-expressing)
T1 construct: L2/434/Bu, GFP-expressing
Set-up: species or system HeLa; Intracellular C. trachomatis growth in HeLa cells, bulk GFP fluorescence relative to DMSO
Details: bulk GFP, single well; 28.5 h, 10 µM; inhibitor

Structure (SMILES)	% of control remaining
O=C(NCCCNC1CCc2[nH]c3ccccc3c2C1)c1cccc(Br)c1 (stereo not drawn) [CBK107130T]	89.0282%
Cn1nccc1NC(=O)Nc1ccc(CN2CCOC2=O)cc1 [CBK306279]	149.711%
COc1cc(F)cc(OC2CCNCC2)c1NC(=O)C1CCC1 [CBK045912T]	104.203%
COc1ccc(C2C(C(=O)Nc3ccc(C)cc3)=C(C)Nc3ncnn32)cc1OC (stereo not drawn) [CBK294416]	138.269%
Cc1cc(C)nc(Nc2ccc(C3CCCN(C(=O)C(C)(C)c4cccc(F)c4)C3)nc2)n1 (stereo not drawn) [CBK286007]	101.627%
COc1ccc(C2(NCc3ccc(N4CCCC4=O)cc3)CC2)cc1 [CBK282834]	99.5888%
CCCn1c(C)cc(-c2csc(NC(=O)CCn3c(-c4cccs4)n[nH]c3=S)n2)c1C [CBK295326]	143.297%
O=C(O)Cc1ccc(NC(=O)c2cccc(NC(=O)c3ccco3)c2)cc1 [CBK268606]	102.74%
COc1ccccc1N(CC(O)CN1CCCC1)S(=O)(=O)c1ccccc1 (stereo not drawn) [CBK264829]	90.766%
CCOC(=O)N1CCN(Cc2nc3c(c(=O)n(C)c(=O)n3C)n2Cc2ccccc2C)CC1 [CBK269325]	110.305%
Nn1cnn2c(SCCSC3CCCCC3)nnc12 [CBK263192]	115.682%
CCOc1ccc(NC(=O)N(Cc2cnn(C)c2)CC(C)C)cc1C#N [CBK307636]	134.872%
Cc1ccc(S(=O)(=O)N(CC(=O)NCc2ccco2)c2cc(C)cc(C)c2)cc1 [CBK263982]	115.439%
CCn1c(COc2ccc(C(=O)O)cc2)nc2ccccc21 [CBK267647]	136.181%
COc1ccccc1C(C)CN(C)C (stereo not drawn) [CBK011948C]	137.669%
Cc1cc(Cl)ccc1CNC(=O)C1=CC(=O)CC(C)(C)O1 [CBK153282]	102.589%
Cc1ccc(CNc2c(-c3ccco3)nc3cnccn23)cc1 [CBK283693]	149.041%
O=C(c1ccccc1)N1CCCC(c2nnc(-c3cccs3)o2)C1 (stereo not drawn) [CBK283059]	67.0626%
COc1cc2c(cc1OC)CN(CCN1CCCCC1)CC2 [CBK126439]	100%
N#C/N=C(/Nc1cccnc1)Oc1ccccc1 [CBK012612]	109.486%
Cc1nnc(CN(CC2CCCO2)C2CCC(C)CC2)o1 (stereo not drawn) [CBK304824]	133.824%
Nc1ncc(-c2cc(C(F)(F)F)cc(C(F)(F)F)c2)nc1N1CCN(CCO)CC1 [CBK063426]	76.4954%
COc1ccc(Cc2nc(C3CCC3)n(CC3COCCO3)n2)cc1 (stereo not drawn) [CBK307378]	153.734%
COC(C(=O)NCc1sc(-c2ccccc2)nc1C)c1ccccc1 (stereo not drawn) [CBK092362]	115.91%
Cc1c(C(=O)N2CCC(c3c(C(=O)NC(C)C)sc4ccccc34)C2)[nH]c2ccccc12 (stereo not drawn) [CBK285872]	120.02%
NC(=O)c1c(NC(=O)CSC2=NCCS2)sc2c1CCCC2 [CBK269989]	107.334%

Structure (SMILES)	% of control remaining
CN(C)c1ccc(-c2nccnc2NS(=O)(=O)c2cccs2)cc1 [CBK050804]	130.26%
c1cncc(-c2cn3ccnc3c(NCC3CC3)n2)c1 [CBK036609]	118.118%
COc1cc2c(cc1OC)CN(CCO)CC2 [CBK138322]	103.649%
COCC(=O)Nc1ccc(Cl)c(NC(=O)NCCN2CCCC2=O)c1 [CBK306663]	102.374%
O=C(CSc1nc2ccccc2s1)OCc1ccc([N+](=O)[O-])cc1 [CBK262547]	122.394%
c1ccc(CCNc2nccnc2-c2ccncc2)nc1 [CBK037378]	118.2%
COc1ccc(OC)c(NC(=O)c2cnc3scc(C)n3c2=O)c1 [CBK287462]	129.237%
COc1cc(NS(=O)(=O)c2ccc(N/C=C3/CCc4ccccc4C3=O)cc2)nc(OC)n1 [CBK263376]	15.4642%
Cc1cc(C2CCCCCN2Cc2c(C)nn(C)c2C)on1 (stereo not drawn) [CBK282967]	112.979%
CCCc1cc(O)nc(SCC(=O)Nc2cc3c(cc2C(C)=O)OCO3)n1 [CBK266144]	120.521%
NS(=O)(=O)c1ccc(CCNC(=O)c2ccc(Cl)c([N+](=O)[O-])c2)cc1 [CBK264395]	100%
O=C(Nc1ccccc1C(=O)NCCN1CCOCC1)c1cccs1 [CBK270077]	115.597%
COc1ccc(C2=NN(c3ccc([N+](=O)[O-])cc3)C(=O)/C2=C\c2cccc(OC)c2OC)cc1 [CBK264475]	133.763%
Cc1nc(CNC(=O)c2nn(-c3cccc(C(C)C)c3)cc2O)no1 [CBK305269]	105.365%
CCCC(=O)N1CCN(Cc2ccc3c(c2)OCO3)CC1 [CBK074367]	116.723%
CCN(CCc1nc2cc(OC)ccc2[nH]1)C(=O)c1ccc(=O)n(C)c1 [CBK307312]	153.575%
CCCC(=O)c1ccc2c(c1)CC(N(CCC)CCC)C2 (stereo not drawn) [CBK023971C]	144.867%
COc1ccc(C(=O)/C=C/c2cccs2)c(OC(=O)c2ccc([N+](=O)[O-])cc2)c1 [CBK264926]	95.2237%
CC[C@H]1CN(C(=O)c2ccnc(Cl)c2)CC[C@H]1CC(=O)NCc1ccc2c(c1)OCO2 [CBK289137]	108.995%
CC(=O)NCCSc1cc(C(F)(F)F)ccn1 [CBK105297]	99.8198%
COc1cccc(CN(C)CCN(C)C)c1O [CBK261905]	111.877%
Cc1ccc(-c2cc(C(=O)Nc3ccc(S(=O)(=O)Nc4nccs4)cc3)c3ccccc3n2)c(C)c1 [CBK262638]	89.6193%
Cc1nonc1NC(=O)CSc1nc2cc(Cl)ccc2[nH]1 [CBK270095]	131.286%
COCCN(C(=O)c1ccc2ccccc2c1)C1CCS(=O)(=O)C1 (stereo not drawn) [CBK305758]	121.488%
CCOc1ccccc1NC(=O)Nc1ncccc1C [CBK267140]	170.758%

Shown comma-delimited: 3 of the compounds above.
Structure (SMILES),% of control remaining
c1cncc(-c2cn3ccnc3c(NCC3CC3)n2)c1 [CBK036609],118.118%
O=C(CSc1nc2ccccc2s1)OCc1ccc([N+](=O)[O-])cc1 [CBK262547],122.394%
Cc1cc(C2CCCCCN2Cc2c(C)nn(C)c2C)on1 (stereo not drawn) [CBK282967],112.979%
